Mtb cholesterol medium: 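Growth of Mycobacterium tuberculosis over 4 days (cholesterol / DPPC medium with tyloxapol); the read-out is not stated. Compounds at 50 µM. The record gives no direction; compounds that gave an IC50 in retests scored well above the rest, so higher reads as more growth inhibition. About 69,000 compounds were tested under these conditions; 0.54% (about 370) showed 50% or more at least once.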
Mtb glucose medium: 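Phenotypic screen: M. tuberculosis growth, glucose 7H9 medium, 3 days; the read-out is not stated. Tested at 50 µM. Higher reads as more growth inhibition (inferred: compounds with an IC50 in retests scored well above the rest). Of about 69,000 compounds tested this way, about 760 (1.1%) reached 50% or more in at least one test.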

The filed quantity is “Percent Effect” (%). The record does not define 0% and 100%; most values in the screen are far below 50% and negative numbers occur (in some assays of this library far below -100). The compounds are a random part of those screened. Two or more numbers in one place are separate tests of the same structure; such repeats can differ widely.

With CCN1CCC(Cn2ccc3ccc(C(=O)OC)cc3c2=O)C1 (centres undefined) the screen gave Mtb cholesterol medium: -2.643% & -15.22%; Mtb glucose medium: -26.08%.
With CC1CN(C)c2ccccc2CN1C(=O)c1ccncc1F (centres undefined) the screen gave Mtb cholesterol medium: 3.279% & -4.161%; Mtb glucose medium: -31.4%.
With O=C(NCCN1CCOCC1)NCc1ncc(-c2ccccc2)o1 the screen gave Mtb cholesterol medium: 0.6696%; Mtb glucose medium: 8.152%.
With CO[C@H]1CN(C(=O)OC(C)(C)C)CC1NCc1ccco1 (some centres undefined) the screen gave Mtb cholesterol medium: -2.656%; Mtb glucose medium: 5.956%.
With NC(=O)C1CCCN(c2ncnc3c2Cc2ccccc2OC3)C1 (centres undefined) the screen gave Mtb cholesterol medium: -4.26%; Mtb glucose medium: -26.58% & 6.018%.
With O=C(CSc1ccccn1)NCc1ccc2c(c1)CCC(=O)N2 the screen gave Mtb cholesterol medium: -10.62%; Mtb glucose medium: -3.562%.
With COc1ccc(CNc2cc3[nH]c(O)nc3cc2C)cc1 the screen gave Mtb cholesterol medium: 3.887%; Mtb glucose medium: 22.36% & 19.25%.
With Cc1cc(NC(=O)N2CCN(C)CC2C)n(Cc2ccccc2)n1 (centres undefined) the screen gave Mtb cholesterol medium: 20.9%; Mtb glucose medium: 26.63% & -3.259%.
With Cc1cc(N[C@H](CO)COCc2ccccc2)n2nc(C)cc2n1 the screen gave Mtb cholesterol medium: -0.5445%; Mtb glucose medium: 4.753% & 24.13%.
With O=C(NCc1ccccn1)NCC(c1ccco1)N1CCCCC1 (centres undefined) the screen gave Mtb cholesterol medium: -5.333%; Mtb glucose medium: 19.16% & -3.057%.
With Cl.NCC(=O)N1CCCC1c1nccnc1Nc1ncccn1 (centres undefined) the screen gave Mtb cholesterol medium: -9.478%; Mtb glucose medium: 21.87%.
With CN1C(=O)CCC12CCN(c1ccc(C#N)cn1)CC2.O=C(O)C(F)(F)F the screen gave Mtb cholesterol medium: -5.994%; Mtb glucose medium: 20.75%.
With O=C(O)C(F)(F)F.[H][C@@]12CCN(CC(=O)NC)C[C@]1([H])CN(C(=O)c1ccccc1C)C2 the screen gave Mtb cholesterol medium: -19.03%; Mtb glucose medium: -15.66%.
With COc1ccccc1C1(C(=O)N2CCN(CC(C)O)CC2)CC1 (centres undefined) the screen gave Mtb cholesterol medium: -15.1%; Mtb glucose medium: -14.89%.
With Cn1cnnc1C1CCCN(C(=O)NCCn2ccnc2)C1 (centres undefined) the screen gave Mtb cholesterol medium: -20.05%; Mtb glucose medium: -2.257%.
With CCc1nc(CN(C)C(=O)c2ccc(OCCCOC)nc2)cs1 the screen gave Mtb cholesterol medium: -7.566% & -1.166%; Mtb glucose medium: -3.617%.
With Cn1ccc2c(NC(=O)Cn3ncc4c(c3=O)CCCC4)cccc21 the screen gave Mtb cholesterol medium: 4.731%; Mtb glucose medium: 8.551% & 1.232%.
With O=C1N(Cc2ccc(F)c(F)c2)CCCC12CCN(C1CCSCC1)C2 (centres undefined) the screen gave Mtb cholesterol medium: -3.542%; Mtb glucose medium: 58.09%.
With O=C(N[C@@H]1CCCNC1)C1(Oc2ccc(Cl)cc2)CCNCC1 the screen gave Mtb cholesterol medium: -1.664%; Mtb glucose medium: -4.343%.
With CCn1ccnc1CN1CCN(Cc2cccc(C#N)c2)CC1 the screen gave Mtb cholesterol medium: 13.87%; Mtb glucose medium: 1.337% & -41.85%.
With COc1ccc(C[C@H]2CN(C(=O)CN(C)C)CC[C@H]2OC)cc1.O=C(O)C(F)(F)F the screen gave Mtb cholesterol medium: 54.35%; Mtb glucose medium: 41.25%.
With Cc1nc(CN2CCN(c3ccc(Cl)cn3)CC2)no1 the screen gave Mtb cholesterol medium: 6.931%; Mtb glucose medium: 11.39%.
With CCn1cc(NC(=O)CN2CCC(Oc3ccc(F)cc3)CC2)c(C)n1.Cl the screen gave Mtb cholesterol medium: -8.149% & 6.985%; Mtb glucose medium: -4.046%.
With CC(=O)N1CCCC(c2ccc3sc(N)nc3n2)C1 (centres undefined) the screen gave Mtb cholesterol medium: -7.345%; Mtb glucose medium: 12.54%.
With Cc1cc(C)nc(N2CCC(C(=O)Nc3n[nH]c(C)n3)CC2)n1 the screen gave Mtb cholesterol medium: 11.88%; Mtb glucose medium: 15.14% & -3.062%.
With O=C(O)c1nc(SCc2ccc(F)cc2)ncc1Br the screen gave Mtb cholesterol medium: 3.916%; Mtb glucose medium: 13.67%.
With Cc1nn(C)cc1CN(C)C(=O)c1cccnc1 the screen gave Mtb cholesterol medium: -6.666%; Mtb glucose medium: 19.03%.
With O=C(O)C(F)(F)F.[H][C@@]12COC[C@]1(c1nnc(C)o1)CN(Cc1cnn(C)c1)C2 the screen gave Mtb cholesterol medium: -4.259%; Mtb glucose medium: 0.2552% & -3.975%.
With Fc1ccc2[nH]c(C3CCCN3CCCn3cccn3)nc2c1 (centres undefined) the screen gave Mtb cholesterol medium: 12.5%; Mtb glucose medium: 13.15%.

Once more, the final 3:

{"compound": "Cc1nn(C)cc1CN(C)C(=O)c1cccnc1", "Mtb cholesterol medium": -6.666, "Mtb glucose medium": 19.03}
{"compound": "O=C(O)C(F)(F)F.[H][C@@]12COC[C@]1(c1nnc(C)o1)CN(Cc1cnn(C)c1)C2", "Mtb cholesterol medium": -4.259, "Mtb glucose medium": "0.2552 & -3.975"}
{"compound": "Fc1ccc2[nH]c(C3CCCN3CCCn3cccn3)nc2c1", "stereo": "centres undefined", "Mtb cholesterol medium": 12.5, "Mtb glucose medium": 13.15}

Source: ChEMBL document CHEMBL3988442, “University of Dundee, Small-Polar-MMV Screening Library” (2021).